Measurements as given in paper PMC9418256.
Results are given in words; binding and its absence hold for the method and conditions named. Binding seen in cells or lysates may run through a third protein. Binding can be weak; no strength is given. Sequences can lack the tags named with a protein.

Molecular target: KINβ2-YFP (Arabidopsis thaliana)
Test: co-IP; lysate of 10-day-old Arabidopsis seedlings co-expressing pKIN10::KIN10-Myc and pKINβ2::KINβ2-YFP (control: pKIN10::KIN10-Myc only), treated with or without 2 mM H2O2 for 3 h; GFP-Trap agarose beads, 4 °C, 1 h; immunoblot with anti-GFP and anti-Myc

- binding: binds
B1: KIN10-Myc (enzyme, UniProt Q38997 1-512)
chain: MDGSGTGSRSGVESILPNYKLGRTLGIGSFGRVKIAEHALTGHKVAIKILNRRKIKNMEMEEKVRREIKILRLFMHPHIIRLYEVIETPTDIYLVMEYVNSGELFDYIVEKGRLQEDEARNFFQQIISGVEYCHRNMVVHRDLKPENLLLDSKCNVKIADFGLSNIMRDGHFLKTSCGSPNYAAPEVISGKLYAGPEVDVWSCGVILYALLCGTLPFDDENIPNLFKKIKGGIYTLPSHLSPGARDLIPRMLVVDPMKRVTIPEIRQHPWFQAHLPRYLAVPPPDTVQQAKKIDEEILQEVINMGFDRNHLIESLRNRTQNDGTVTYYLILDNRFRASSGYLGAEFQETMEGTPRMHPAESVASPVSHRLPGLMEYQGVGLRSQYPVERKWALGLQSRAHPREIMTEVLKALQDLNVCWKKIGHYNMKCRWVPNSSADGMLSNSMHDNNYFGDESSIIENEAAVKSPNVVKFEIQLYKTRDDKYLLDLQRVQGPQFLFLDLCAAFLAQLRVL
